Reference: PubChem BioAssay AID1259308 (NCATS, 2017)
Purpose: 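Knock-downs that increase output of a recombinant reporter protein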 (primary screen). Cells: human HEK293 embryonic kidney cells stably expressing firefly luciferase (HEK-CMV-Luc2-Hygro). Reagent: single siRNA against human genes, 0.8 pmol siRNA per well. Time to read-out: 72 h. Detection: 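Reporter luminescence and viable-cell signal on separate replicate plates, given as percent of non-targeting control and median/MAD z-scores, plus per-cell luciferase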. Direction: total luciferase, z-score: higher = more reporter protein produced. Call rule: 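Active when the median/MAD z-score for overall luciferase is greater than 3; a gene was taken forward for validation with new siRNAs if at least two of its three siRNAs passed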. Calls: active = raised luciferase; inactive = no rise.
Shown is a random part of about 59,000 reagents. In the full data, about 1,510 (2.6%) were called active. 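Calls use total luciferase alone and ignore viability, so some active siRNAs may act by altering cell number.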 The numbers tell different reagents against one gene apart. Not all columns of the deposit are shown.

total luciferase, z-score, by target gene and reagent
SLN: #1 1.25 inactive; #2 1.81 inactive; #3 0.284 inactive
OXSM: #1 -0.481 inactive; #2 1.18 inactive; #3 -1.01 inactive
DDR2: #1 0.134 inactive; #2 -0.556 inactive; #3 -0.129 inactive
TIMM17B: #1 2.25 inactive; #2 -0.682 inactive; #3 0.773 inactive
ABCC12: #1 0.6 inactive; #2 1.54 inactive; #3 0.0435 inactive

Entries above whose target name begins with A or a (3):
total luciferase, z-score, by target gene and reagent
ABCC12: #1 0.6 inactive; #2 1.54 inactive; #3 0.0435 inactive

Additional results follow:
total luciferase, z-score, by target gene and reagent
SRPRB: #1 0.322 inactive; #2 -0.342 inactive; #3 1.58 inactive
NABP1: #1 -0.603 inactive; #2 0.944 inactive; #3 -0.237 inactive
PGM2L1: #1 -0.41 inactive; #2 0.247 inactive; #3 1.07 inactive
